Results from article PMC9638026.

The chains behind the UniProt entries cited, without tags or fusion partners. Residues count along the entry.
UniProt Q9BRJ7, 6-211: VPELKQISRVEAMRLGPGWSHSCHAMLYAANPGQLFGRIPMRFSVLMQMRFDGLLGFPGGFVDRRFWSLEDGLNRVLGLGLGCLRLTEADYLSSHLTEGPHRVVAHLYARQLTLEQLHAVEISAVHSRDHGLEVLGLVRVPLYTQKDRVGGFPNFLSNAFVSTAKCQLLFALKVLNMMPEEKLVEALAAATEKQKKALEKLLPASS
UniProt Q12888, 1484-1603: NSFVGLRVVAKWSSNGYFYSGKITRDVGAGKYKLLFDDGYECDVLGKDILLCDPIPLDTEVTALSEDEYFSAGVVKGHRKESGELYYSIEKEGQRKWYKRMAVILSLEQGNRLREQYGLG

What was measured:
[1] = target: TIRR (6-211)-His (UniProt Q9BRJ7); assay: SPR; conditions: SPR: 20 mM HEPES pH 6, 300 mM NaCl, 0.05% P20, 25 C, recombinant protein, residues 6-211, protein details: His; for binding result: up to 200 uM, no comparable binding
[2] = target: 53BP1-Tudor (Homo sapiens) (UniProt Q12888); assay: EMSA; conditions: 20 mM Mg2+, EMSA: 50 mM HEPES, 50 mM NaCl, 5% glycerol, 20 mM MgCl2, 0.01% Tween 20, 37 C 15 min, 10 nM probe, commercial protein, label: 32P 5' in EMSA
[3] = target: TIRR full length (UniProt Q9BRJ7); assay: EMSA; conditions: 20 mM Mg2+, EMSA: 50 mM HEPES, 50 mM NaCl, 5% glycerol, 20 mM MgCl2, 0.01% Tween 20, 37 C 15 min, 10 nM probe, recombinant protein, residues 1-211, label: 32P 5' in EMSA
[4] = target: TIRR (HTRF) (Homo sapiens?) (UniProt Q9BRJ7); assay: competition (HTRF); conditions: TIRR/53BP1 complex, highest RNA concentration; EMSA: 50 mM HEPES, 50 mM NaCl, 5% glycerol, 20 mM MgCl2, 0.01% Tween 20, 37 C 15 min, 10 nM probe; recombinant protein; label: 32P 5' in EMSA

GGACAAGATGCCTTATGTGG [ssDNA (DNA sense)]
binding result ([1]; label: 32P 5' in EMSA, single-stranded DNA): no binding | binding result ([2]; single-stranded DNA): no binding | binding result ([3]; single-stranded DNA): no binding

GGACAAGATGCCTTATGTGGACTTCACCACATAAGGCATCTTGTCC [DNA hairpin]
binding result ([1]; folded or branched DNA): no binding

GGACAAGATGCCTTATGTGG (double strand) [dsDNA]
binding result ([1]; letters put together from the description): no binding

GGACAAGAUGCCUUAUGUGG [ssRNA (RNA sense; ssRNA1)]
Kd ([1]; label: 32P 5' in EMSA): 100 µM | binding result [2]: no binding | binding result [3]: binds | binding signal (% dissociation of TIRR/53BP1) [4]: 18

For part of these data: A negative result means that nothing was seen under these conditions. For part of these data: At least one verdict was read from the data and is not stated in words by the source. The exact form of at least one protein or probe is not confirmed. For part of these data: The direction of at least one scale is not stated here.
